Results deposited as PubChem BioAssay AID652272 (Drosophila RNAi Screening Center, 2013).

Aim: 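Genome-wide knock-down search for components of Hedgehog signalling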 (primary screen)
System: Drosophila clone 8 (Cl8) cells
Reagent: long dsRNA against Drosophila genes
Measured: 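Plate reader light from a firefly reporter under a ptc promoter fragment that responds to Hedgehog, with Renilla light as transfection reference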
Scale: firefly Hh reporter signal: higher = more ptc reporter light; Renilla reference signal: higher = more Renilla control light
Hit rule: 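Called a hit if the two-replicate mean z-score lies below -2 or above +3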
Meaning of the calls: active = hit: reporter lowered or raised; inactive = not a hit
In all, the deposit lists about 21,000 reagents; below is a random part of those that have a named target and a result. Over the whole deposit, 503 (2.4%) were called active. 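Raw plate light values, not normalised; calls rest on replicate z-scores that were not deposited; hits include reporter decreases as well as increases.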 Unmarked entries are inactive. The numbers tell different reagents against one gene apart. A plus sign joins genes that one reagent is predicted to hit. The record does not give: the amount of reagent, the time to read-out.

| predicted target | reagent no. | firefly Hh reporter signal, replicate 1 | firefly Hh reporter signal, replicate 2 | firefly Hh reporter signal, replicate 3 | Renilla reference signal, replicate 1 | Renilla reference signal, replicate 2 |
| --- | --- | --- | --- | --- | --- | --- |
| Sema2a (GeneID 36846) | 1 | 1.06e5 | 96080 | – | 5354 | 3797 |
| Sr-CII (GeneID 44219) | 1 | 67499 | 41467 | – | 1937 | 3506 |
| CG4328 (GeneID 39405) | 1 | 57860 | 13592 | 18902 | 2787 | 1611 |
| ppk24 (GeneID 43702) | 1 | 1.11e5 | 74956 | – | 3845 | 1424 |
| Lamtor2 + CG30120 | 1 | 1.19e5 | 2.18e5 | – | 3376 | 8577 |
| Lamtor2 + CG30120 | 2 | 1.00e5 | 65767 | – | 3063 | 5116 |
| boi (GeneID 31229) | 1 | 90624 | 2.29e5 | – | 3274 | 8088 |
| boi (GeneID 31229) | 2 | 58636 | 2.07e5 | – | 2469 | 7041 |
| CG34458 (GeneID 5740868) | 1 | 1.04e5 | 55414 | – | 3123 | 4205 |
| Arf6 (GeneID 36699) | 1 | 86640 | 68101 | – | 1858 | 4601 |
| CG4597 (GeneID 38604) | 1 | 45763 | 42363 | – | 5360 | 3410 |
| CG40341 (retired record) (GeneID 3885621) | 1 | 1.44e5 | 2.85e5 | – | 4652 | 14044 |
| CG40341 (retired record) (GeneID 3885621) | 2 | 1.49e5 (active) | 2.38e5 | – | 5239 | 14436 |
| Cyp6t3 (GeneID 36318) | 1 | 80762 | 34484 | – | 2279 | 3273 |
| Ostgamma (GeneID 34137) | 1 | 58453 | 37749 | – | 2128 | 1712 |
| CG6984 (GeneID 36926) | 1 | 1.20e5 | 1.15e5 | – | 4373 | 4144 |
| CG4563 (GeneID 37901) | 1 | 88680 | 57264 | – | 1571 | 4212 |
| CG14110 (GeneID 39500) | 1 | 41144 | 54384 | 62523 | 5789 | 4288 |
| Apc (GeneID 44642) | 1 | 81844 | 1.56e5 | – | 3373 | 5170 |
| krimp (GeneID 36804) | 1 | 1.88e5 | 1.18e5 | – | 7143 | 5076 |
| Sgs8 (GeneID 39285) | 1 | 47683 | 44433 | 53692 | 3776 | 3497 |
| Vps33B (GeneID 43077) | 1 | 96357 | 1.30e5 | – | 1431 | 3330 |
| Nepl18 (GeneID 43410) | 1 | 1.01e5 | 1.15e5 | – | 3116 | 4325 |
| CG17834 (GeneID 34191) | 1 | 58112 | 81351 | – | 2738 | 3496 |
| lncRNA:CR43485 (GeneID 12798587) | 1 | 1.15e5 | 1.91e5 | – | 3722 | 8080 |
| Sclp (GeneID 32156) | 1 | 1.13e5 | 86864 | – | 1953 | 2267 |
| CG43253 (retired record) (GeneID 12797931) | 1 | 2.77e5 | – | – | 6427 | – |
| schuy (GeneID 40184) | 1 | 85260 | 1.06e5 | – | 3027 | 2923 |
| Tm2 (GeneID 41853) | 1 | 72988 | 80827 | – | 1981 | 2438 |
| Sid (GeneID 43390) | 1 | 1.00e5 | 95944 | – | 3500 | 2640 |
| CG17486 (GeneID 3355138) | 1 | 1.08e5 | 76681 | – | 5557 | 3750 |
| Or59c (GeneID 37716) | 1 | 68680 | 45937 | – | 1930 | 3981 |
| CCT8 (GeneID 35882) | 1 | 46357 | 35920 | – | 1908 | 1648 |
| BI-1 (GeneID 38936) | 1 | 48122 | 84626 | – | 2368 | 3253 |
| CG15143 (GeneID 35062) | 1 | 1.01e5 | 65229 | – | 2456 | 6176 |
| beta4GalT7 (GeneID 42991) | 1 | 4.81e5 | 82051 | – | 21963 | 2528 |
| CG10353 (GeneID 32148) | 1 | 79769 | 2.01e5 | – | 1339 | 8176 |
| CG12065 (GeneID 31798) | 1 | 91417 | 82508 | – | 2408 | 2292 |
| CG12065 (GeneID 31798) | 2 | 93024 | 3.12e5 | – | 2756 | 11805 |
| CG13829 (GeneID 42740) | 1 | 4.07e5 | 87937 | – | 20666 | 2618 |
| CG12853 (GeneID 50220) | 1 | 1.36e5 | 63068 | – | 3329 | 5928 |
| stg (GeneID 43466) | 1 | 39568 | 46680 | – | 1220 | 1479 |
| Sps1 (GeneID 36587) | 1 | 1.07e5 | 57531 | – | 4816 | 3136 |
| Ucp4A (GeneID 32764) | 1 | 1.31e5 | 4.18e5 | – | 4484 | 16538 |
| Sf3b6 (GeneID 38720) | 1 | 46262 | 57008 | – | 6758 | 4474 |
| wkd (GeneID 41390) | 1 | 77733 | 1.07e5 | – | 2247 | 5413 |
| CG14418 (GeneID 31275) | 1 | 57516 | 1.73e5 | – | 2400 | 6408 |
| His-Psi:CR31616 + His-Psi:CR31615 | 1 | 23779 (active) | 37609 | – | 882 | 2761 |
| CG31674 (GeneID 318878) | 1 | 62327 | 51254 | – | 1287 | 5052 |
| Jig (GeneID 41762) | 1 | 1.55e5 | 1.09e5 | – | 5907 | 3222 |
| mael (GeneID 40489) | 1 | 1.33e5 | 1.07e5 | – | 5447 | 4278 |
| Cda5 (GeneID 33158) | 1 | 6.41e5 | 6.73e5 | 5.05e5 | 33763 | 5312 |
| Cda5 (GeneID 33158) | 2 | 1.38e5 | 69755 | – | 3259 | 1590 |
| Cda5 (GeneID 33158) | 3 | 1.35e5 | 93388 | – | 3382 | 1762 |
| CG12945 (GeneID 41204) | 1 | 89552 | 1.16e5 | – | 2151 | 3450 |
| asRNA:CR43469 + Balat | 1 | 97526 | 55435 | – | 3931 | 2422 |
| Vha100-3 (GeneID 246543) | 1 | 92122 | 1.67e5 | – | 2661 | 7050 |

A stretch of the results above, as a working copy:
| predicted target | reagent no. | firefly Hh reporter signal, replicate 1 | firefly Hh reporter signal, replicate 2 | firefly Hh reporter signal, replicate 3 | Renilla reference signal, replicate 1 | Renilla reference signal, replicate 2 |
| --- | --- | --- | --- | --- | --- | --- |
| Vps33B (GeneID 43077) | 1 | 96357 | 1.30e5 | – | 1431 | 3330 |
| Nepl18 (GeneID 43410) | 1 | 1.01e5 | 1.15e5 | – | 3116 | 4325 |
| CG17834 (GeneID 34191) | 1 | 58112 | 81351 | – | 2738 | 3496 |
| lncRNA:CR43485 (GeneID 12798587) | 1 | 1.15e5 | 1.91e5 | – | 3722 | 8080 |
| Sclp (GeneID 32156) | 1 | 1.13e5 | 86864 | – | 1953 | 2267 |
| CG43253 (retired record) (GeneID 12797931) | 1 | 2.77e5 | – | – | 6427 | – |
| schuy (GeneID 40184) | 1 | 85260 | 1.06e5 | – | 3027 | 2923 |
| Tm2 (GeneID 41853) | 1 | 72988 | 80827 | – | 1981 | 2438 |
| Sid (GeneID 43390) | 1 | 1.00e5 | 95944 | – | 3500 | 2640 |
| CG17486 (GeneID 3355138) | 1 | 1.08e5 | 76681 | – | 5557 | 3750 |
